Library screening results

Protein sequences, listed by entry. Tags and fused reporters are not part of them.
UniProt E9BF75, entry or part of it: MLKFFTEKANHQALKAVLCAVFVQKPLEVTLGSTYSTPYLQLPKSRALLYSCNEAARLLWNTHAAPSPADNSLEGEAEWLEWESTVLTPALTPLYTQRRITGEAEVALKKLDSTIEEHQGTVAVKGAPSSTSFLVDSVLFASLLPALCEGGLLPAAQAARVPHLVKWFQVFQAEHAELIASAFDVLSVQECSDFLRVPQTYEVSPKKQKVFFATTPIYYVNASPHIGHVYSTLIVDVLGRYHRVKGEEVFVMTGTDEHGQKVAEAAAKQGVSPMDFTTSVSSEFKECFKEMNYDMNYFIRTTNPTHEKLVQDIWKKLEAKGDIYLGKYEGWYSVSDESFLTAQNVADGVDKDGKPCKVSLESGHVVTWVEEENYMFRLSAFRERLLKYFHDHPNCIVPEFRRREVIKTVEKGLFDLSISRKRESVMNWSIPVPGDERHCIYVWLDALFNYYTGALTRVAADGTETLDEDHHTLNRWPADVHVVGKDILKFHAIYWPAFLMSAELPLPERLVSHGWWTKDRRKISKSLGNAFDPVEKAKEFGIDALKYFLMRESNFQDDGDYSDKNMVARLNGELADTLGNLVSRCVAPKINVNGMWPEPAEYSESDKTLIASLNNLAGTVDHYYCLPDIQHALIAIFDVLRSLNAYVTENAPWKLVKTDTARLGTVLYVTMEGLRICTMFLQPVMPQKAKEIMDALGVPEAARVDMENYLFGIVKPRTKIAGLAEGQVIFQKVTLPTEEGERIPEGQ

Source: ChEMBL document CHEMBL3988442, “University of Dundee, Small-Polar-MMV Screening Library” (2021).

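Primary screen of methionyl-tRNA synthetase; the read-out is not stated. Target: Methionyl-tRNA synthetase (putative), Leishmania donovani (UniProt E9BF75). The test concentration is not given. Values are per cent inhibition. About 68,000 compounds were tested under these conditions; 0.035% (about 24) showed 50% or more at least once.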

All values are in %. The record does not define 0% and 100%; most values in the screen are far below 50% and negative numbers occur (in some assays of this library far below -100). This is an unselected part of the compounds tested.

COC(=O)c1cc2c(=O)n(C3CC3)ccc2nc1C gave 3.939%. CN(Cc1cccs1)C(=O)Cn1cc(NC(=O)C(C)(C)C)cn1 read 25%. CCn1c(CC2CCN(S(=O)(=O)c3cccc(C)c3)CC2)nn(C)c1=O read 0.5115%. Cc1cc(C)cc(CN2CCN(C(=O)CCc3n[nH]c(C)n3)CC2=O)c1 read 0.9464%. For CCOCCOC(C)C(=O)Nc1ccc2c(ccn2CC)c1 (stereo not given) the result was 5.292%.

COc1ccc(C(=O)C2CCCN(c3cc(OC)ncn3)C2)c(C)c1 (stereo not given) read 8.824%. Result for CC(C)(O)CCc1cccc(C(=O)N2Cc3cnn(CCO)c3C2)c1 was 11.17%. Result for Cc1ccc(C#N)c(N2CCC(c3nccn3Cc3cscn3)CC2)n1 was 21.46%. CN(CC1CC1)C(=O)Cc1csc(-c2ncccn2)n1 read 9.589%. For Cc1ccc(CNCc2cc(Br)c3c(c2)OCO3)cc1 the result was 10.68%.

With COc1ccc(N(C)C(=O)c2ccc(Cl)c(S(C)(=O)=O)c2)cn1 the screen gave 10.14%. Result for COCC1CN(CC2CC2)Cc2nn(CC3CC3)cc21 (stereo not given) was -0.6667%. O=C1CN(c2ccc(C(=O)N3CCc4ccccc43)cn2)CCN1 gave 13.17%. Result for CC(C)c1nnc(N2C[C@@H]3CC[C@H](C2)N(Cc2ccccc2)C3)s1 was 34.53%. For CN(c1cccnc1N1CCCC1)S(=O)(=O)c1cccnc1 the result was 7.102%.

With CCN(C(=O)CN1CCC(c2ccccc2)C1)C1CC1 (stereo not given) the screen gave 10.31%. With CC(=O)N1C[C@@H]2C(=O)N(C)C3(CCN(C(=O)C(C)C)CC3)[C@@H]2C1 the screen gave 8.889%. With Cc1csc(C2CCCN(C(=O)c3cnc[nH]3)C2)n1 (stereo not given) the screen gave 16.99%. Cc1cc(C(=O)N2CC[C@H]3C[C@H](c4ccncn4)O[C@@H]3C2)c(C)[nH]1 read 8.497%. With COCCN1CCC2(CCC(=O)N2Cc2csc(C)n2)CC1 the screen gave 11.23%.

With Nc1ccc(C(=O)N2CCCC(C(=O)CCc3ccccc3)C2)cn1 (stereo not given) the screen gave 19.82%. With Oc1ccc(Br)c(CNc2cccc(-c3nnc[nH]3)c2)c1 the screen gave 12.54%. Cc1nn(C)c(Cl)c1C1CCCN1C(=O)c1ccc2c(c1)COC2 (stereo not given) read 13.89%. With CCCc1noc2ncc(C(=O)N3CCCC3c3cnn(C)c3)cc12 (stereo not given) the screen gave 9.639%. Cc1ncc(CN2CCC3(CCCN(CC4CCC4)C3)C2)cn1 (stereo not given) read 17.72%.

CCc1c(C)nc2n(c1=O)CC(C(=O)Nc1nccs1)CS2 (stereo not given) read 10.78%. O=C(NC1CCN(c2ncccc2F)C1)c1cccc(-n2ccnc2)c1 (stereo not given) gave 22.31%. With CC(O)CN(C)S(=O)(=O)c1ccc(C#N)cc1F (stereo not given) the screen gave 17.42%. With CN(C)S(=O)(=O)N1CC[C@]2(O)CCN(c3nccs3)C[C@@H]2C1 the screen gave 10.65%. Result for c1ccc2sc(N3CCCC(Cn4cncn4)C3)nc2c1 (stereo not given) was 13.31%.

With CN(C)c1ccc(CN(CC2CCCO2)C(=O)c2csnn2)cc1 (stereo not given) the screen gave 11.68%. CC(C)(C)C(=O)N1C[C@H](c2ccsc2)[C@H]2CN(C3CCCC3)CC[C@H]21 read 17.09%. CS(=O)(=O)N1C[C@H](NC(=O)c2ccno2)[C@@H]2OCCC[C@@H]21 read 14.99%. CCOc1cc(C(=O)N2CCCC2)cc2occc12 gave 17.85%. For O=C(NC1CC1)N1CCOC2(CCCN(c3cccc(F)c3)C2)C1 (stereo not given) the result was -1.045%.

With CC(C)C(=O)NC1CCCN(C(=O)c2ccccc2O)C1 (stereo not given) the screen gave 24.5%. With CNc1cncc(C2CCCN2C(=O)c2ccc3oc(=O)n(C)c3c2)n1 (stereo not given) the screen gave 10.62%. For CC(NCc1c(C(C)C)nn(C)c1N(C)C)C(=O)NC1CCCC1 (stereo not given) the result was 6.015%. With Cc1ccc(C)c(-n2ccc3nc(N4CCCC4)ncc3c2=O)c1 the screen gave 7.884%. For O=C(c1ccco1)N1C[C@H]2CCCN(Cc3ccoc3)[C@H]2C1 the result was 5.882%.

COCC(=O)N1C[C@@H]2COC[C@]2(COC)C1 gave 14.79%. O=C(c1ccco1)N1CCO[C@@H]2CNC[C@@H]21 gave 3.117%. For Cn1ccnc1-c1noc(NCc2ccc3c(c2)OCCO3)n1 the result was 12.81%. For Cn1cc(-c2ncnc3c2CCN(C(=O)c2cscn2)CC3)cn1 the result was 4.918%. Result for NC1CCc2c(ccc(=O)n2CC2CC2)C1 (stereo not given) was 1.667%.

CNc1nc(C)cc(NC2CCCN(C3Cc4ccccc4C3)C2)n1 (stereo not given) read 10.05%. With Cc1ccc(CN2CCc3ncnc(-c4ccoc4)c3CC2)o1 the screen gave 17.77%. With O=C(c1ccc(Cl)c(Cl)c1)N1CCCC(n2cncn2)C1 (stereo not given) the screen gave 5.397%. With CN(Cc1ccccc1OC(F)(F)F)C(=O)C1CCCN(C(N)=O)C1 (stereo not given) the screen gave 4.819%. For O=C(NCc1ccnc(O)c1)NCC1CCCC1 the result was 9.669%.

With Cc1ccc(-n2cc(CN3CCN(C)[C@@H]4CS(=O)(=O)C[C@@H]43)cn2)cc1 the screen gave 12.47%. Result for CC(C)(C)CN(CCC#N)C(=O)Cc1ccc(-n2cnnn2)cc1 was 24.73%. For O=C(O)CCCNC(=O)N1CCc2c([nH]c3ccc(Cl)cc23)C1 the result was 11.21%. For Cc1cccc(CSc2ncc(Cl)c(C(=O)O)n2)c1 the result was 8.401%. For CC(C)C(=O)NCc1cc(Br)ccc1F the result was -3.727%.

Repeated from the top, 5 entries:

{"compound": "COC(=O)c1cc2c(=O)n(C3CC3)ccc2nc1C", "inhibition": 3.939}
{"compound": "CN(Cc1cccs1)C(=O)Cn1cc(NC(=O)C(C)(C)C)cn1", "inhibition": 25}
{"compound": "CCn1c(CC2CCN(S(=O)(=O)c3cccc(C)c3)CC2)nn(C)c1=O", "inhibition": 0.5115}
{"compound": "Cc1cc(C)cc(CN2CCN(C(=O)CCc3n[nH]c(C)n3)CC2=O)c1", "inhibition": 0.9464}
{"compound": "CCOCCOC(C)C(=O)Nc1ccc2c(ccn2CC)c1", "stereo": "stereo not given", "inhibition": 5.292}